# Assay results reported in patent US12246022B2, “Compositions and methods for treating, preventing or reversing age associated inflammation and disorders” (BROWN UNIVERSITY, priority 2019, dated 2025).
# For at least one compound, name, drawing or mass did not settle the structure.
# System: age-associated phenotypes in mouse tissues
# Experiment: Age-associated phenotypes in mouse tissues (immunofluorescence, histology, adipogenesis, thermogenesis)
# Type: in vivo
# Settings: mice, 3TC from 20 to 26 months of age
structure (smiles),measurement,value
Nc1ccn([C@@H]2CS[C@H](CO)O2)c(=O)n1 [Lamivudine],"macrophage infiltration of tissues, glomerulosclerosis of the kidney, skeletal muscle atrophy",effective at opposing several known phenotypes of aging
